Results published in US8507439B2, “Neuroprotective and neurorestorative method and compositions” (priority 2005, dated 2013).
At least one peptide structure holds a part that was inferred or is arguable (an end, a ring closure or a residue). Residues, ends and D or L forms follow the SMILES beside them. ξ: configuration not given here. *: point of attachment. Lipoyl(6ξ) = O=C(CCCCC1CCSS1)*

System: primary rat cortical cultures
Assay: Oxygen-glucose deprivation (anoxia) of primary rat cortical cultures, LDH release into extracellular medium
Format: cell-based
Experimental: Peptides of the invention have been examined for neuroprotective activity in primary rat cortical cultures. […] It rescued 90-100% of the neurons that were exposed to a 3 hour oxygen-glucose deprivation (OGD).
For the tests, primary mixed neuron-glia rat cortical cultures were grown to 80-95% confluence, as previously described (Shashoua, V. E. et al., Brain Res. (2004) 1024(1-2):34-43). Their neurons were grown over a layer of glia cells and formed a network of processes. Such cultures, after a 5× wash in oxygen-free (air displaced by argon) Hanks Balanced Salt Solution (HBSS) (Shashoua, V. E. et al., Brain Res. (2004) 1024(1-2):34-43) buffer, which contained no glucose, serum, and growth factors, were transferred for 3 hrs into the Form a Scientific Anaerobic Chamber (Thermo Forma, Marietta, Ohio) (Goldberg, M. P. and Choi, D. W. J Neurosci. (1993) 13(8):3510-3524) in an atmosphere of N2, CO2 and H2 (85%, 5%, and 10%). After exposure to oxygen-glucose deprivation (OGD) the neurons, retract their processes and generate vacuoles in their perikarya. […] Large increases (about 250%) in the release of lactic acid dehydrogenase (LDH, a marker of cell injury) into the extra-cellular medium occurred. […] LDH was measured as absorbance at 490 nm, n=6 per time point (Shashoua, V. E. et al., Brain Res. (2004) 1024(1-2):34-43) (see Table 2). […]

In the case of CC(C)[C@H](NC(=O)[C@H](CCC(=O)O)NC(=O)CCCCC1CCSS1)C(=O)N[C@@H](CC(=O)O)C(=O)N[C@@H](CC(=O)O)C(=O)N[C@@H](CC(=O)O)C(=O)N[C@@H](CCC(N)=O)C(=O)O (stereo partly shown) [[Lip]-EVDDDQ] ({Lipoyl(6ξ)}-EVDDDQ-OH; C-terminus assumed), the “reversal of the effects of anoxia / neuroprotection from anoxia (in words)” value is reported as “promote neuroprotection from anoxia”.
